Screen size: about 320,000 compounds; about 620 (0.19%) were called active. This list was built around the results that the source calls inconclusive (neither active nor inactive); the mix of calls is not that of the screen. Cut-off read from the data, not from the text of the source: active = activation above about 80%; inconclusive = between about 30% and that limit; inactive = weaker than that.
Each compound was assayed against Transient receptor potential cation channel subfamily V member 1 (Homo sapiens) (UniProt Q8NER1) (assay: HTS Assay for Compounds that Act as Agonists of the Vanilloid Receptor 1). Details: TRPV1-expressing cells, Fluo-8 calcium influx, agonist mode; at 8.33 µM, active compounds read high.
In short: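 Cells expressing TRPV1 were dye-loaded with Fluo-8 and read kinetically: 10 s baseline, 3 min after compound (agonist portion), then 2 min after EC20 capsaicin (allosteric enhancer portion). Calcium-bound dye fluorescence at 480/520 nm.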
Note: 0% is about no effect.

Protein sequences, listed by entry. Tags and fused reporters are not part of them.
UniProt Q8NER1, whole entry, looked up: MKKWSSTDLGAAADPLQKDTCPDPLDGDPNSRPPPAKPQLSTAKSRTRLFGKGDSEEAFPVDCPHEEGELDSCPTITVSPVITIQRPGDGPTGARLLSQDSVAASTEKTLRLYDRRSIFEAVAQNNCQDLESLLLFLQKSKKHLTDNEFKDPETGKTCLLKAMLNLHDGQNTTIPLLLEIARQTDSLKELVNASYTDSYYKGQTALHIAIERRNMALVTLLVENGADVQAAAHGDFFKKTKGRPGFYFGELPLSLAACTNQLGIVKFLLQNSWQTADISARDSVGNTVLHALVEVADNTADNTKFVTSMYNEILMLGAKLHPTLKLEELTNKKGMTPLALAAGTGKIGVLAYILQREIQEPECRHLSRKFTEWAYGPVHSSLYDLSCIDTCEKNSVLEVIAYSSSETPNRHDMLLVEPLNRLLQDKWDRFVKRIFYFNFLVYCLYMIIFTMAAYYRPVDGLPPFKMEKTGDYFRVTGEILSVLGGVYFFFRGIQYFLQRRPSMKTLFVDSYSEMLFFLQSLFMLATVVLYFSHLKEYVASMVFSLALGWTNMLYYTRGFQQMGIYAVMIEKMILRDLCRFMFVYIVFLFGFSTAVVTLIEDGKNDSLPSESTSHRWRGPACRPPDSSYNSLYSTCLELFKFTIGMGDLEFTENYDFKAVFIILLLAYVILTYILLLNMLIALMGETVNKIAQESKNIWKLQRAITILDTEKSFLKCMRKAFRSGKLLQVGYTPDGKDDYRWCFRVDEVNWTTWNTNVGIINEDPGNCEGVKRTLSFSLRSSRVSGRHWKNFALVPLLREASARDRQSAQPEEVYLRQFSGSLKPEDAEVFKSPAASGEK

| SMILES | activation |
| --- | --- |
| O=C(NC(CC1CCCCC1)C(=O)O)c1ccccc1 (stereo not drawn) | inactive: -9.37% |
| O=C(Nc1cccnc1)C1CC(c2ccc(Cl)c(Cl)c2)=NO1 (stereo not drawn) | inconclusive: 48.8% |
| COc1ccc2nc(-c3ccccc3)cc(C(=O)OCC(=O)N3CC(C)OC(C)C3)c2c1 (stereo not drawn) | inactive: 17.5% |
| CN(C)c1ccc(CNC(=O)CN(C)S(=O)(=O)c2cccc3cccnc23)cc1 | inactive: 0.842% |
| Cc1cccc(CCN(C(=O)c2csnn2)C(C(=O)NC2CCCC2)c2ccco2)c1 (stereo not drawn) | inconclusive: 46.1% |
| COc1ccc(/C=C/c2nc3ccccc3c(=O)o2)cc1 | inactive: -0.635% |
| Cc1c(Cl)ccc2c1NC(=O)[C@]21N[C@@H](Cc2ccccc2)[C@H]2C(=O)N(c3ccc(F)cc3)C(=O)[C@H]21 | inconclusive: 41.3% |
| CCCCCOc1ccc(CSC(=N)N)cc1[N+](=O)[O-] | inactive: -2.47% |
| O=C(COC(=O)c1ccccc1NC(=O)c1ccco1)NCc1ccc2c(c1)OCO2 | inconclusive: 37.5% |
| CC1=Nc2cc(C(=O)NCC3CCCO3)ccc2Sc2ccc(C)cc21 (stereo not drawn) | inconclusive: 47.9% |
| COC(=O)c1cc(NC(=O)CC2CCCC2)cc(C(=O)OC)c1 | inconclusive: 54.1% |
| C/C(=N\NC(=O)c1csc(C)c1C)c1ccc(Cl)s1 | inactive: 4.3% |
| FC(F)Oc1ccc(NC(=S)NCC2COc3ccccc3O2)cc1 (stereo not drawn) | inconclusive: 48.4% |
| CC1Nc2ncnc(N3CCN(c4ccccc4)CC3)c2N(Cc2ccccc2)C1=O (stereo not drawn) | inactive: 17.5% |
| Clc1ccc(/C=N/Nc2nnc(Cl)c3ccccc23)cc1 | inactive: -1.09% |
| CC(C)N(CCCNC(=O)Cn1ncc2c([nH]c3ccccc32)c1=O)Cc1ccccc1 | inactive: 2.07% |
| O=C(/C=C/c1c[nH]c2ccccc12)c1ccccc1 | inconclusive: 46.2% |
| COc1cc2ccccc2cc1C(=O)Nc1nccs1 | inconclusive: 53.3% |
| O=C(CC1CCCC1)NCCS(=O)(=O)N1CCN(c2ccccc2F)CC1 | inactive: 4.26% |
| Clc1ccc(COn2c(-c3ccc(Cl)cc3)nc3ccccc32)cc1 | inconclusive: 47.3% |

| SMILES | activation |
| --- | --- |
| S=C(NCCCc1ccccc1)NC1CCCCC1 | inconclusive: 49.1% |
| O=C(O)c1cccc(-c2ccc(/C=N/Nc3ccc([N+](=O)[O-])cc3)o2)c1 | inconclusive: 30.9% |
| COc1ccc(CNCc2ccc3ccccc3c2)c(OC)c1 | inactive: 9.04% |
| O=C(CCSCc1ccccc1F)NCc1cccnc1 | inconclusive: 43.8% |
| O=C(NCc1ccco1)c1ccc(N2CCCCC2)c([N+](=O)[O-])c1 | inconclusive: 49.6% |
| Cc1cc(C)n2nc(C(=O)N3CCCC(Nc4ccc(C(C)C)cc4)C3)cc2n1 (stereo not drawn) | active: 86% |
| COc1ccccc1NC(=O)CN(c1ccccc1)S(=O)(=O)c1ccccc1 | inconclusive: 46.4% |
| O=C(NCCCc1ccccc1)c1ccccc1 | inconclusive: 51.2% |
| COCCCNc1nnc(Cc2ccccc2)c2ccccc12 | inconclusive: 33.1% |
| COc1cc2c(cc1OC)CN(C(=S)Nc1ccc(Cl)cc1)CC2 | inconclusive: 55.8% |
| COc1cc(C(=O)Nc2ccc(-n3cnnn3)c(C)c2)cc(OC)c1OC | inconclusive: 58.5% |
| COc1ccccc1NC(=O)C(CC(C)C)NC(=O)C1CCCCC1 (stereo not drawn) | inconclusive: 79.1% |
| CCn1c(=N)n(CC(=O)c2ccc(OC)cc2)c2ccccc21 | inactive: -1.05% |
| COc1ccc(Nc2ccccc2N)cc1 | inconclusive: 36.6% |
| COc1ccccc1Nc1nc(C)nc2c1oc1ccccc12 | inconclusive: 70.3% |
| Cc1ccc(C)c(N(C(=O)CNC(=O)c2ccco2)C(C(=O)NCC2CCCO2)c2ccccc2)c1 (stereo not drawn) | inconclusive: 32% |
| O=C(/C=C/c1ccccc1[N+](=O)[O-])c1ccc(F)cc1 | inconclusive: 34.2% |
| COc1ccc(/C=C/C(=O)NCCCN2CCCC2)cc1 | inactive: -1.32% |
| Cc1ccc(CN2CC(C(=O)NNC(=O)c3ccc(F)cc3)CC2=O)cc1 (stereo not drawn) | inactive: 0.537% |
| COc1cc(C(F)(F)F)nc2ccc(C#CCOC(=O)Nc3ccccc3)cc12 | inconclusive: 30.2% |

Among those listed so far, 2 contain an NH in an aromatic ring.

| SMILES | activation |
| --- | --- |
| CC(C)N(CCCNC(=O)Cn1ncc2c([nH]c3ccccc32)c1=O)Cc1ccccc1 | inactive: 2.07% |
| O=C(/C=C/c1c[nH]c2ccccc12)c1ccccc1 | inconclusive: 46.2% |

Remaining list, next part.

| SMILES | activation |
| --- | --- |
| COc1ccc(NC(=O)CSc2nc3scc(C)c3c(=O)[nH]2)cc1 | inactive: -0.994% |
| O=C(COc1cccc(C(F)(F)F)c1)Nc1ccc2[nH]ncc2c1 | inconclusive: 69.8% |
| Cc1ccc(NC(=O)C2CCN(S(=O)(=O)c3cccs3)CC2)cc1 | inconclusive: 43% |
| O=C(c1ccc2ccccc2n1)N1CCN(c2ccccc2Cl)CC1 | inconclusive: 63.8% |
| COCCNC(=O)c1cnn2c(C(F)F)cc(-c3ccc(C)cc3)nc12 | inconclusive: 45.2% |
| CCCC(C(=O)Nc1ccc(S(=O)(=O)N2CCOCC2)cc1)c1ccccc1 (stereo not drawn) | inconclusive: 51.5% |
| CCOC(=O)CNC(c1ccccc1)c1cc(Br)ccc1NC(=O)OCC (stereo not drawn) | inconclusive: 31.7% |
| COc1ccc(-c2nc(CSCC(=O)N3CCN(c4cccc(C)c4)C(C)C3)c(C)o2)cc1OC (stereo not drawn) | inconclusive: 40.7% |
| N#Cc1ccc(OCC(=O)Nc2ccc(N3CCCC3)cc2)cc1 | inconclusive: 50.1% |
| COc1ccc(/C=N/N2CCOCC2)cc1OCc1ccccc1 | inconclusive: 32.2% |
| Cc1nc(NC(=O)c2ccccc2)sc1-c1csc(NCc2ccco2)n1 | inactive: 1.43% |
| O=C(Nc1nc2c(s1)COc1ccccc1-2)c1cccs1 | inconclusive: 31.8% |
| O=C(NCCNC(=O)c1cc(OCC(F)(F)F)ccc1OCC(F)(F)F)Nc1ccc(Cl)cc1 | inconclusive: 50.8% |
| CC(Oc1cccc(Cl)c1)C(=O)Nc1ccccc1N1CCCCC1 (stereo not drawn) | inconclusive: 46.4% |
| Cc1ccccc1C(=O)c1cccn1CC(=O)NCc1ccccc1Cl | inconclusive: 32% |
| O=C(Nc1nc(-c2ccc(Cl)s2)cs1)c1cccs1 | inconclusive: 48.2% |
| CCC1CCCCN1C(=O)c1sc2ncnc(N(CC)CC)c2c1C (stereo not drawn) | inconclusive: 34.2% |
| COc1ccc(S(=O)(=O)N2CCC(C(=O)Nc3cccc(C(C)=O)c3)CC2)cc1C | inconclusive: 38.4% |

— PubChem BioAssay AID540275 (National Center for Advancing Translational Sciences (NCATS), 2011)
